These are yes or no findings as the source states them, for the method shown. Some results given as binding are weak or reduced against the parent protein; the word gives no strength.

Sequences of proteins named here, by UniProt entry; tags and fusion partners are left off. Residues count along the entry.
UniProt P15209, residues 32-821: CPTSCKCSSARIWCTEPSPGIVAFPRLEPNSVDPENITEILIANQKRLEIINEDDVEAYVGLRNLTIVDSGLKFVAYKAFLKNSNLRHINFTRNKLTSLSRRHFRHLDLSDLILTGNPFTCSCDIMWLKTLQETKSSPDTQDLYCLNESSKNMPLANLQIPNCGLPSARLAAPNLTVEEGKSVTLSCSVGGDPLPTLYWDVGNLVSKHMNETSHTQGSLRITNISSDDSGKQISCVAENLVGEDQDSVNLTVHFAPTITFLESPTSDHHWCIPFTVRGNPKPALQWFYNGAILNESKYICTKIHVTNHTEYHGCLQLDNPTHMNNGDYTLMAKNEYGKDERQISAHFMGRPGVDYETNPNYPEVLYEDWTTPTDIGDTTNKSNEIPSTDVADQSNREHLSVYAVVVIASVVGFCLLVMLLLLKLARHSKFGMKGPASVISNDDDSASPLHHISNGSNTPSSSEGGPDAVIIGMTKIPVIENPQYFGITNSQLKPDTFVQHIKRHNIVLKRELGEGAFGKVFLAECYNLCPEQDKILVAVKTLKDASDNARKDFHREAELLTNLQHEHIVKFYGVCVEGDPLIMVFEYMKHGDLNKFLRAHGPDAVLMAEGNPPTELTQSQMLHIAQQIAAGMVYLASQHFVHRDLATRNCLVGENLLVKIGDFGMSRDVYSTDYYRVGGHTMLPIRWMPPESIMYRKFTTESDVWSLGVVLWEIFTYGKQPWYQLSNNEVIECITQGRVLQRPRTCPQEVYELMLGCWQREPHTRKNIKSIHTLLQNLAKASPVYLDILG

Test [1] concerns the target mouse trkB tyrosine protein kinase gp145^trkB (mouse) (UniProt P15209). The test can be described thus: [125I]-NT-3 binding to cells.
Test [2] has the same target. The test can be described thus: [125I]-NT-3 (1 nM) binding to B35-41 and Z52-17 cells at 4°C.

B1: human neurotrophin-3 (NT-3) (ligand, UniProt P20783 139-257, looked up)
chain: YAEHKSHRGEYSVCDSESLWVTDKSSAIDIRGHQVTVLGEIKTGNSPVKQYFYETRCKEARPVKNGCRGIDDKHWNSQCKTSQTYVRALTSENNKLVGWRWIRIDTSCVCALSRKIGRT
modifications: 125I (Bolton-Hunter) where used as tracer
With B1, the binding entry in test [1] and in test [2] was “binds” throughout.

The values above are taken from patent EP0504914A2.
